Measurements reported in article PMC10086755.
No constants are given. Whether binding was seen depends on the method and setting. Binding seen in cells or lysates may run through a third protein. Some binding calls cover weakened binding; strength is not graded here.

Sequences of proteins named here, by UniProt entry; tags and fusion partners are left off.
UniProt Q9NRC8: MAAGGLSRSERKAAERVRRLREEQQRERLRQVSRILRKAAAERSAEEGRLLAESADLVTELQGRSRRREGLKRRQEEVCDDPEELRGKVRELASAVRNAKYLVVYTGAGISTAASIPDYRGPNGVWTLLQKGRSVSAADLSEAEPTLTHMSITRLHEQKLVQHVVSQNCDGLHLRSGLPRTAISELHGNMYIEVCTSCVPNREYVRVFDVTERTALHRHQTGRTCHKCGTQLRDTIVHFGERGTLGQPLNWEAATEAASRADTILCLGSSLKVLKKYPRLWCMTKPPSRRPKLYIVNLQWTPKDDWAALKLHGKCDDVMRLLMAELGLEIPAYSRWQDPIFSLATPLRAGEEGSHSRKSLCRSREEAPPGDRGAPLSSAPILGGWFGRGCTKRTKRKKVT

Target: SIRT7 (human (endogenous in breast cancer cells)) (UniProt Q9NRC8)
Assay: co-IP; anti-SIRT7 antibody on Protein A/G beads mixed with lysate of breast cancer cells (IP lysis buffer with protease inhibitors), 4 °C for 16 h, four washes with PBS, western blotting

B1: lamina-associated polypeptide 2α (LAP2α) (protein, UniProt P42166 1-694)
chain: MPEFLEDPSVLTKDKLKSELVANNVTLPAGEQRKDVYVQLYLQHLTARNRPPLPAGTNSKGPPDFSSDEEREPTPVLGSGAAAAGRSRAAVGRKATKKTDKPRQEDKDDLDVTELTNEDLLDQLVKYGVNPGPIVGTTRKLYEKKLLKLREQGTESRSSTPLPTISSSAENTRQNGSNDSDRYSDNEEGKKKEHKKVKSTRDIVPFSELGTTPSGGGFFQGISFPEISTRPPLGSTELQAAKKVHTSKGDLPREPLVATNLPGRGQLQKLASERNLFISCKSSHDRCLEKSSSSSSQPEHSAMLVSTAASPSLIKETTTGYYKDIVENICGREKSGIQPLCPERSHISDQSPLSSKRKALEESESSQLISPPLAQAIRDYVNSLLVQGGVGSLPGTSNSMPPLDVENIQKRIDQSKFQETEFLSPPRKVPRLSEKSVEERDSGSFVAFQNIPGSELMSSFAKTVVSHSLTTLGLEVAKQSQHDKIDASELSFPFHESILKVIEEEWQQVDRQLPSLACKYPVSSREATQILSVPKVDDEILGFISEATPLGGIQAASTESCNQQLDLALCRAYEAAASALQIATHTAFVAKAMQADISQAAQILSSDPSRTHQALGILSKTYDAASYICEAAFDEVKMAAHTMGNATVGRRYLWLKDCKINLASKNKLASTPFKGGTLFGGEVCKVIKKRGNKH
  binding: binds
